No constants are given. Whether binding was seen depends on the method and setting. For some assays here: In cells and extracts the contact can be indirect. Some binding calls cover weakened binding; strength is not graded here. For some assays here: Where a sequence is shown, tags or fusion partners need not be part of it. Values belong to the binder of their own block, whether it stands above or below them.
How the values were obtained:
[1] = target: T1, Mdf1p-3HA (S. cerevisiae) (UniProt P25585); assay: co-IP; lysate of yeast overexpressing HA-tagged Mdf1p (lag phase) precipitated with anti-HA antibody and protein-G agarose; western blot with a Snf1p antibody; wild-type cells as negative control; lysis buffer 50 mM Tris-HCl pH 7.5, 150 mM NaCl, 0.2% NP-40, 4°C
T1 sequence: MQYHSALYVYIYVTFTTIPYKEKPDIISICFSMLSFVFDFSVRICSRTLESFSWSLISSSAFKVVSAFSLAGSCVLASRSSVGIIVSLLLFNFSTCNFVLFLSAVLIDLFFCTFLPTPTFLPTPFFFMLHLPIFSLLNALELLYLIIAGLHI

[2] = target: T2, Mdf1p fused to the DNA-binding domain of Gal4 (DB) (S. cerevisiae) (UniProt P25585); assay: two-hybrid; Gal4 DB-Mdf1p and Gal4 AD-Snf1p co-transformed into strain Y190; selection on SD-Trp-Leu-His, X-gal; plasmids transformed separately as negative controls
T2 sequence: T1 sequence

binding [1]: binds
B1: Snf1p (protein, UniProt P06782 1-633)
chain: MSSNNNTNTAPANANSSHHHHHHHHHHHHHGHGGSNSTLNNPKSSLADGAHIGNYQIVKTLGEGSFGKVKLAYHTTTGQKVALKIINKKVLAKSDMQGRIEREISYLRLLRHPHIIKLYDVIKSKDEIIMVIEYAGNELFDYIVQRDKMSEQEARRFFQQIISAVEYCHRHKIVHRDLKPENLLLDEHLNVKIADFGLSNIMTDGNFLKTSCGSPNYAAPEVISGKLYAGPEVDVWSCGVILYVMLCRRLPFDDESIPVLFKNISNGVYTLPKFLSPGAAGLIKRMLIVNPLNRISIHEIMQDDWFKVDLPEYLLPPDLKPHPEEENENNDSKKDGSSPDNDEIDDNLVNILSSTMGYEKDEIYESLESSEDTPAFNEIRDAYMLIKENKSLIKDMKANKSVSDELDTFLSQSPPTFQQQSKSHQKSQVDHETAKQHARRMASAITQQRTYHQSPFMDQYKEEDSTVSILPTSLPQIHRANMLAQGSPAASKISPLVTKKSKTRWHFGIRSRSYPLDVMGEIYIALKNLGAEWAKPSEEDLWTIKLRWKYDIGNKTNTNEKIPDLMKMVIQLFQIETNNYLVDFKFDGWESSYGDDTTVSNISEDEMSTFSAYPFLHLTTKLIMELAVNSQSN

binding [2]: binds
B2: Snf1p fused to the activation domain of Gal4 (AD) (protein, UniProt P06782 1-633)
chain: B1 chain
